Laboratory results as given in patent US8658403B2, “Method for producing polyhydroxyalkanoic acid” (priority 2009, dated 2014).

Test system: BM07-ΔphaZ
Experiment: Aromatic PHA production, one-step cultivation on 50 mM fructose and 10 mM 5-PV or 6PC
Format: cell-based, Pseudomonas fluorescens
Details: 1 mM salicylic acid, 30° C., culture time 72 h
Procedure: […] Salicylic acid was dissolved by adding sodium hydroxide and the pH of the solution was adjusted to 7.2 before adding to medium. Cell growth was determined by measuring dry cell weight (DCW). The remaining fructose was measured using DNS method and the remaining 11-POU or other carboxylic acids were determined by gas chromatography. The cells were isolated by centrifuging (10,000×g, 10 min), the cell suspension was washed with methanol and dried under vacuum at room temperature for 48 hours. The remaining NH4^+ was measured using Nessler's reagent. In the time-course profiling experiments, a set of culture flasks equal to the planned sampling times (every 4 or 6 h) was prepared and cultivated under the same culture condition. One of the flasks was withdrawn every scheduled time and the medium (50 ml) was centrifuged and analyzed.
The monomer composition of the PHA in cells was determined by analyzing the methyl esters, recovered from a sulfuric acid/methanol treatment of the cells, using a Hewlett-Packard HP5890 Series II gas chromatograph equipped with a HP-1 capillary column and a flame ionization detector. The gas chromatography (GC) run conditions were as follows: initial temperature of 80° C. for 2 min; heating rate of 8° C./min; final temperature of 250° C. for 6.75 min; carrier (He) flow rate of 3 ml/min; injector temperature of 230° C.; and detector temperature of 280° C. The standardization of each GC peak was made against the PHA of known structure characterized by quantitative NMR analyses

O=C(O)c1ccccc1O [Salicylic acid, salicylic acid]
Conversion yield (50 mM fructose + 10 mM 5PV): 0.591 ± 0.002
Conversion yield (50 mM fructose + 10 mM 5PV, listed as salicylic acid): 0.59
Conversion yield (50 mM fructose + 10 mM 6PC): 0.333 ± 0.002
